## Screening data, single-dose tests

Data taken from ChEMBL document CHEMBL3988442, “University of Dundee, Small-Polar-MMV Screening Library” (2021).

The filed quantity is “Percent Effect” (%). The record does not define 0% and 100%; most values in the screen are far below 50% and negative numbers occur (in some assays of this library far below -100). Compounds were drawn at random from those tested, without regard to their results. Two or more numbers in one place are separate tests of the same structure; such repeats can differ widely.

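Phenotypic screen: M. tuberculosis growth, cholesterol and DPPC medium, 4 days; the read-out is not stated. Concentration: 50 µM. Higher reads as more growth inhibition (inferred: compounds with an IC50 in retests scored well above the rest). Size under these conditions: about 69,000 compounds, about 370 of them at 50% or above in at least one test.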

structure,effect
OC(COc1ccccc1)CN1CCc2c(ncn2C2CC2)C1 (stereo not given),-1.923
Cc1nc(CCCNC(=O)[C@H]2CNC[C@@H](C(=O)N3CCCC3)C2)sc1C,14.1
CSCC(=O)N1CCC(c2nccn2Cc2cscn2)CC1,-0.3113 and -19.2
CCc1ncc(C(=O)N2CCN(Cc3ncccc3C)CC2)cn1,-20.78
O=C1NCCN(C(=O)c2cn3ccsc3n2)C1c1cccc(F)c1 (stereo not given),19.34
Cc1ccc(CN(C)Cc2cc(C3CC3)[nH]n2)c(O)n1,-11.35 and -5.633
CC(C)Nc1ncnc2c1CCNCC2,22.77
O=C(c1cccnc1)N1CCCC(c2cc(C(F)F)n3ncnc3n2)C1 (stereo not given),7.981
Cc1ccc(C2CSCCN2C(=O)c2ccncc2)cc1 (stereo not given),-42.26
CN(Cc1ccoc1)C(=O)Cn1ncc(N(C)C)cc1=O,19.99
Cc1cc(C)cc(NC(=O)c2cnc(N3CCN(C)CC3)nc2C)c1,15.92
CCS(=O)(=O)c1ccc2c(c1)OCCO2,-6.223
CSc1ccc(CNC(=O)Cc2c(C)n[nH]c2C)cc1,-12.14
Cc1ccc(NC(=O)CCc2ccco2)cc1N1CCOC1=O,-5.935
CCc1noc(C(C)N(C)Cc2ccc(OC)c(OC)c2)n1 (stereo not given),-17.39
CN1CCN(CC2CC2)C(=O)c2cnc(N3CCCCC3)nc21,-6.408
Cn1ncc2c(=O)[nH]c(CN3CCCC3CC3CCCCC3)nc21 (stereo not given),-3.617
Cc1cc(-c2cc(N)c(=O)n(CC(=O)N3CCCC(C)C3)n2)c(C)o1 (stereo not given),6.041 and 14.33
COCCC1(CNC(=O)NCC2CCCS2)CCCC1 (stereo not given),57.24
CCCn1ccnc1-c1nccn1CCN(C)C,-11.31
Cc1nc(C)n(CC2CCCN2Cc2nc(-c3ccsc3)no2)n1 (stereo not given),-20.32
Cn1nccc1NC(=O)CN1CCc2sccc2C1,14.08
COc1c(CNC2(c3ccc(Cl)cc3)CCC2)c(C)nn1C,8.122
CCC(C)n1c(SCC(=O)N2CCOCC2)nc2cc(C)[nH]c2c1=O (stereo not given),-17.53
c1cn(-c2nccnc2C2CCCN(C3CCOCC3)C2)cn1 (stereo not given),-17.44 and 2.589
CN(C)CCN(C)C1CCN(C(C(=O)O)c2ccc(F)c(Cl)c2)CC1 (stereo not given),2.927
CN1CCN(C)C2(CCN(Cc3ccsc3)CC2)C1=O.O=C(O)C(F)(F)F,-8.186 and -11.29
COc1cc2cc(C)c(SCCN3CCCCC3)nc2cc1OC.Cl,44.77
Cn1cc(NC(=O)N2CCN(Cc3cscn3)CC2)ccc1=O,21.95
NC(=O)CCNC(=O)NCC1(c2ccccc2Cl)CCC1,0.01359
CC(C)(C)c1nc(CN2CCc3onc(-c4cccc(F)c4)c3C2)no1,20.16
Cc1c(NC(C)C(C)C)cccc1C(=O)NCc1nnc(C)n1C (stereo not given),-30.72
CNc1nc(C(=O)N2CCC3(CCCN(CC4CC4)C3=O)C2)cs1 (stereo not given),7.538
CC(C)n1cc(CN2CCCN(C(=O)COC3CCCC3)CC2)cn1,-18.69
[H][C@]12CCN(C(=O)c3ccco3)[C@@]1([H])CC[C@@H](COCC1CCOCC1)O2,2.628
Cc1nc(C)n(C2CCCN(C(=O)CCOc3cccc(F)c3)C2)n1 (stereo not given),9.131
Cc1ccc(C)c2c(O)cc(CN[C@H]3CCCCNC3=O)nc12,21.35
COc1ccc2[nH]cc(C(=O)N3C[C@@H](O)[C@H](N4CCCC4)C3)c2c1,7.792
Cc1nn(C)c(N(C)C)c1CNCCCN(C(C)C)S(C)(=O)=O,-1.52
CCOc1ccc(Cl)c(C(=O)NCCC(=O)Nc2ccncc2)n1,-9.743
CC(=O)N1CCCC(C(=O)N2Cc3nc(C)n(C)c(=O)c3C2)C1 (stereo not given),-9.635 and -12.89
Cc1ccccc1CSc1nc(N)cc(N2CCCC(O)C2)n1 (stereo not given),-6.339
COc1ccc(C(C(=O)O)N(C)CCN2CCCC2)c(C)c1 (stereo not given),-23.98
O=C(NC(C1CC1)C1CC1)c1cccc[n+]1[O-],-4.427
CC(c1cccc(O)c1)N(C)S(N)(=O)=O (stereo not given),-52.29
Cc1ccccc1CC(=O)N1CC[C@@](O)(CNS(C)(=O)=O)[C@H](O)C1,-29.87
CC1CN(C)CCN1C(=O)c1cnc2onc(CC(C)(C)C)c2c1 (stereo not given),-11.45
O=C(O)[C@H]1C[C@H](C(=O)NC2CC2)CN(Cc2ccc(-c3cc[nH]n3)s2)C1,-3.653
O=C(NCCCN1CCCC1=O)c1ccc(-n2ccc3ccccc32)s1,-4.558
COCCNC(=O)Cn1cc(OCc2ccc(F)cc2)c(=O)cc1C,-63.54
NC(=O)CC1CCCN(C(=O)NCC2(c3cccs3)CCCC2)C1 (stereo not given),-6.297
[H][C@]12CC[C@]([H])(CN(C(C)=O)C1)N(S(=O)(=O)c1cc(F)ccc1C)C2,-1.716
[H][C@]12C[C@H](NC(=O)c3cc(C)no3)[C@@]1([H])CN(S(=O)(=O)c1ccc(C)cc1)C2,3.952
CNc1cc(C2CCCN(Cc3ccccc3OCC(=O)O)C2)ccn1 (stereo not given),-13.14
COCCCS(=O)(=O)N1CCN(C(=O)CO)CC1,-8.356
[H][C@]12CC[C@@]3(N=C(c4ccccc4)NC3=O)[C@@]1([H])CN(Cc1ccoc1)C2,-24.13
OCC1CCCCN1Cc1cc(O)c2cccc(F)c2n1 (stereo not given),-11.28
COc1cccc(CN(C)Cc2[nH]c3ccccc3c2C)c1O,-18.26
O=C(Cc1ccon1)N1CCN(c2ccncc2Cl)CC1,7.76
CN(C)c1nc(N2CCCC2)nc2c1CCN(C(=O)c1ccco1)CC2.O=C(O)C(F)(F)F.O=C(O)C(F)(F)F,-8.92
Cc1ccc(C(=O)N2CCC(c3n[nH]c(C4CC4)n3)CC2)cc1F,7.267
CC(C)Cc1nc(CN2CCC(N3CCN(C)C3=O)CC2)no1,-6.56
Cc1ncsc1CCN(C)Cc1ccc(Br)o1,-13.56
CC(C)(C)NC(=O)[C@@H]1Cc2ccccc2CN1Cc1cccs1,-19.24
Cc1nc2ccccn2c1CN1C[C@@H](CN2CCOCC2)[C@@H](CO)C1,-22.04
[H][C@@]12CCCN1C[C@@H](CCSC)N(Cc1cnn(CC)c1)C2,-8.606
CN1CCOC(C(=O)Nc2nc(-c3ccccc3F)n[nH]2)C1 (stereo not given),11.82
O=C(CN1CCOc2ccc(Cl)cc21)NCc1ncc[nH]1,4.669
CCn1nc(C)c2nn(CC(=O)NC3CCSCC3)cc21,-23.62
CC(C)n1ncc2cc(NC(=O)N3CCC(CO)CC3)cnc21,7.15
CS(=O)(=O)NC1CCCN(C(=O)NCc2cccnc2)C1 (stereo not given),-8.909
O=C1CC(c2cccnc2)c2c(c(C(=O)O)cn2-c2ccccc2)N1 (stereo not given),2.83
CCN(C)C(=O)c1ccc2c(c1)C(c1nc[nH]n1)CN2S(C)(=O)=O (stereo not given),-22.11
Cc1nc(C)n(CC2CCCN2CC(=O)NCCC#N)n1 (stereo not given),12.15
Cn1cc(-c2ncc3c(c2C(=O)O)CCN(CC2CCOC2)C3)cn1 (stereo not given),-18.42
Cn1ccnc1CN1CCC(CCC(=O)Nc2ccccc2Cl)CC1,9.918
Cc1cc(CN2CCN(c3ccc4nncn4n3)CC2)no1,2.23
Cc1cc(-c2cnn(CCNC(=O)C3CC3)c2C2CC2)on1,-27.71
Cl.Cn1cc(CN2CCN(CC3(c4ccccc4)CC3)CC2)cn1,2.822 and 4.503
COc1ccc(NCc2c[nH]nc2-c2cccnc2)cc1,-18.36
COCCN1CCC(CNC(=O)c2cc(Cl)c[nH]2)CC1,5.937
COc1cc(C(=O)NCC2CCCO2)nc2c(C)cc(F)cc12 (stereo not given),13.81
O=c1cc2c(nn1CN1CCN(c3ccc(F)cc3)CC1)CCC2,-6.29
Cn1cc(CN2CCC3(CCC(C(=O)NCC4CC4)C3)CC2)cn1.O=C(O)C(F)(F)F (stereo not given),-10.49
CN(C)S(=O)(=O)NCc1nn(CCN2CCCC2)c(=O)c2ccccc12,-17.48
CS(=O)(=O)NC1CCN(C(=O)NCCc2ccccn2)CC1,-13.5
COc1ccc(C(C)NCc2cccs2)cc1Cn1cccn1 (stereo not given),-25.22 and -8.312
CCCc1nc(N2CCCC(CCOC)C2)c2cnn(C)c2n1 (stereo not given),-21.01
Cn1cc(CN2CC[C@H](O)[C@@H]2Cc2ccccc2)cn1.O=C(O)C(F)(F)F,13.3 and 2.158
CNc1nc2c(c(C(=O)N3CCCC3)n1)CN(Cc1ccco1)CC2,21.57
Cc1cnc(N2CCc3c(cnc(C)c3C(=O)O)C2)nc1.O=C(O)C(F)(F)F,14.05
O=C1CC2(CCN(C(=O)c3ccccn3)C2)Nc2ccccc2N1 (stereo not given),-7.704
Cn1nnn(-c2ccc(NS(=O)(=O)c3ccc(F)c(Cl)c3)cc2)c1=O,-3.652
CN(C)C(=O)C1CCN(c2cncc(-n3cccn3)n2)CC1,-17.02

The last 12 entries again:

* O=c1cc2c(nn1CN1CCN(c3ccc(F)cc3)CC1)CCC2 : -6.29%
* Cn1cc(CN2CCC3(CCC(C(=O)NCC4CC4)C3)CC2)cn1.O=C(O)C(F)(F)F (stereo not given) : -10.49%
* CN(C)S(=O)(=O)NCc1nn(CCN2CCCC2)c(=O)c2ccccc12 : -17.48%
* CS(=O)(=O)NC1CCN(C(=O)NCCc2ccccn2)CC1 : -13.5%
* COc1ccc(C(C)NCc2cccs2)cc1Cn1cccn1 (stereo not given) : -25.22% and -8.312%
* CCCc1nc(N2CCCC(CCOC)C2)c2cnn(C)c2n1 (stereo not given) : -21.01%
* Cn1cc(CN2CC[C@H](O)[C@@H]2Cc2ccccc2)cn1.O=C(O)C(F)(F)F : 13.3% and 2.158%
* CNc1nc2c(c(C(=O)N3CCCC3)n1)CN(Cc1ccco1)CC2 : 21.57%
* Cc1cnc(N2CCc3c(cnc(C)c3C(=O)O)C2)nc1.O=C(O)C(F)(F)F : 14.05%
* O=C1CC2(CCN(C(=O)c3ccccn3)C2)Nc2ccccc2N1 (stereo not given) : -7.704%
* Cn1nnn(-c2ccc(NS(=O)(=O)c3ccc(F)c(Cl)c3)cc2)c1=O : -3.652%
* CN(C)C(=O)C1CCN(c2cncc(-n3cccn3)n2)CC1 : -17.02%